Results: PMC12494553, “A unique gating mechanism revealed by the cryo-EM structure of monomeric ATP9A flippase” (The Journal of Biological Chemistry, 2025)
Results are given in words; binding and its absence hold for the method and conditions named.

Molecular target: human ATP9A (human) (UniProt O75110)
Experiment: cryo-EM structure; single-particle cryo-EM of purified ATP9A at 8 mg/ml in 0.06% glyco-diosgenin, 20 mM Mes-Tris pH 6.5, 200 mM NaCl, 5 mM MgCl2, with BeF (also AlF or AMPPCP samples); both purified

binding: no binding
B1: human ATP9A (enzyme, UniProt O75110 38-1047)
chain: PRTVWLGHPEKRDQRYPRNVINNQKYNFFTFLPGVLFNQFKYFFNLYFLLLACSQFVPEMRLGALYTYWVPLGFVLAVTVIREAVEEIRCYVRDKEVNSQVYSRLTARGTVKVKSSNIQVGDLIIVEKNQRVPADMIFLRTSEKNGSCFLRTDQLDGETDWKLRLPVACTQRLPTAADLLQIRSYVYAEEPNIDIHNFVGTFTREDSDPPISESLSIENTLWAGTVVASGTVVGVVLYTGRELRSVMNTSNPRSKIGLFDLEVNCLTKILFGALVVVSLVMVALQHFAGRWYLQIIRFLLLFSNIIPISLRVNLDMGKIVYSWVIRRDSKIPGTVVRSSTIPEQLGRISYLLTDKTGTLTQNEMIFKRLHLGTVAYGLDSMDEVQSHIFSIYTQQSQDPPAQKGPTLTTKVRRTMSSRVHEAVKAIALCHNVTPVYESNGVTDQAEAEKQYEDSCRVYQASSPDEVALVQWTESVGLTLVGRDQSSMQLRTPGDQILNFTILQIFPFTYESKRMGIIVRDESTGEITFYMKGADVVMAGIVQYNDWLEEECGNMAREGLRVLVVAKKSLAEEQYQDFEARYVQAKLSVHDRSLKVATVIESLEMEMELLCLTGVEDQLQADVRPTLETLRNAGIKVWMLTGDKLETATCTAKNAHLVTRNQDIHVFRLVTNRGEAHLELNAFRRKHDCALVISGDSLEVCLKYYEYEFMELACQCPAVVCCRCAPTQKAQIVRLLQERTGKLTCAVGDGGNDVSMIQESDCGVGVEGKEGKQASLAADFSITQFKHLGRLLMVHGRNSYKRSAALSQFVIHRSLCISTMQAVFSSVFYFASVPLYQGFLIIGYSTIYTMFPVFSLVLDKDVKSEVAMLYPELYKDLLKGRPLSYKTFLIWVLISIYQGSTIMYGALLLFESEFVHIVAISFTSLILTELLMVALTIQTWHWLMTVAELLSLACYIASLVFLHEFIDVYFIATLSFLWKVSVITLVSCLPLYVLKYLRRRFSPPSYSKLTS
